For part of its entries the source gives two or more results. The other results are left out here. An entry can have further records. The records of an entry differ, and nothing given here explains why; dose, time, organism, isomer or construct need not be as stated for each record.
Target: human SSTR2 (Homo sapiens (Human), UniProt P30874)
Experiment: Human SSTR2 intracellular cAMP functional assay for agonists (HTRF)
Assay type: cell-based
Conditions: read-out: EC50 (inhibition of cAMP activities via human SST2R); CHO-K1 cells stably expressing human SSTR2; NKH477-stimulated cAMP

Chains of the proteins cited; added tags and fusions are not shown.
UniProt P30874, whole entry: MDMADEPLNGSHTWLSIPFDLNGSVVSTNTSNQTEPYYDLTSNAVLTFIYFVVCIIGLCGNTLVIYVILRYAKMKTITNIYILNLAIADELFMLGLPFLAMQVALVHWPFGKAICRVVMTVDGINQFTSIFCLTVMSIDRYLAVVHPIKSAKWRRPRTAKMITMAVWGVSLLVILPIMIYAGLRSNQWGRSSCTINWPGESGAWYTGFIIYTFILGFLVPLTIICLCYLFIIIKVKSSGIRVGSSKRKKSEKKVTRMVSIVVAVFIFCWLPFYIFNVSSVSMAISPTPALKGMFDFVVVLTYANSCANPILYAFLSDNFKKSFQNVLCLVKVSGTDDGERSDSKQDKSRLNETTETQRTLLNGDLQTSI

In the case of `N#Cc1ccnc(-c2ccc3ncc(-c4cc(F)cc(F)c4)c(N4CC[C@H]5NCCO[C@@H]5C4)c3c2)c1O` (relative stereo), the EC50 is reported as 100 nM to 1 µM and < 10 nM.

— US10351547B2, “Somatostatin modulators and uses thereof” (priority 2016, dated 2019)
